Reference: PMC6933376
Numbering of substitutions follows the chain as printed. Numbers in names are those of the source. These are yes or no findings as the source states them, for the method shown. Binding seen in cells or lysates may run through a third protein. Some binding calls cover weakened binding; strength is not graded here. For some of these results: Sequences can lack the tags named with a protein.

Sequences of proteins named here, by UniProt entry; tags and fusion partners are left off.
UniProt P08047: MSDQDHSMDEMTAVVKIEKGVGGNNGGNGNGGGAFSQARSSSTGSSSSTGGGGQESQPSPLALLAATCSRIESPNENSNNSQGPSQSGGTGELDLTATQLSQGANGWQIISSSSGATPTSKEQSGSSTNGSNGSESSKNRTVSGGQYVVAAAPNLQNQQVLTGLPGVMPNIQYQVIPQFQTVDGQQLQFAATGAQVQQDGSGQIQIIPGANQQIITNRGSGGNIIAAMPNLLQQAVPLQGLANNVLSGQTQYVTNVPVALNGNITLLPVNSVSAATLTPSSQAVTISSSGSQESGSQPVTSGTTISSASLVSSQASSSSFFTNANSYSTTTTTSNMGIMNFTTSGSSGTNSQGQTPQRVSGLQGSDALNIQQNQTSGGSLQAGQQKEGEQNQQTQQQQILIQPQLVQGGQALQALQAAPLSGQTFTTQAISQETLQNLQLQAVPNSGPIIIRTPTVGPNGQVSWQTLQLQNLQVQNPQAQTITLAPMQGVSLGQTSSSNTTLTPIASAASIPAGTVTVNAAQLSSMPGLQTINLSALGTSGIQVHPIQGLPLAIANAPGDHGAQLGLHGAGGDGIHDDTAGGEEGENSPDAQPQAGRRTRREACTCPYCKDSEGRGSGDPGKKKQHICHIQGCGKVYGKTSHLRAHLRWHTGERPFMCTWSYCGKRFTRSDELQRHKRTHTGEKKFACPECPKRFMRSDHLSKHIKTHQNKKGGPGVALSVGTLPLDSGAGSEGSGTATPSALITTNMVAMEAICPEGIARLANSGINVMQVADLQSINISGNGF

B1: wild-type BMX (bone marrow kinase in the X chromosome) (enzyme, UniProt P51813 1-675)
chain: MDTKSILEELLLKRSQQKKKMSPNNYKERLFVLTKTNLSYYEYDKMKRGSRKGSIEIKKIRCVEKVNLEEQTPVERQYPFQIVYKDGLLYVYASNEESRSQWLKALQKEIRGNPHLLVKYHSGFFVDGKFLCCQQSCKAAPGCTLWEAYANLHTAVNEEKHRVPTFPDRVLKIPRAVPVLKMDAPSSSTTLAQYDNESKKNYGSQPPSSSTSLAQYDSNSKKIYGSQPNFNMQYIPREDFPDWWQVRKLKSSSSSEDVASSNQKERNVNHTTSKISWEFPESSSSEEEENLDDYDWFAGNISRSQSEQLLRQKGKEGAFMVRNSSQVGMYTVSLFSKAVNDKKGTVKHYHVHTNAENKLYLAENYCFDSIPKLIHYHQHNSAGMITRLRHPVSTKANKVPDSVSLGNGIWELKREEITLLKELGSGQFGVVQLGKWKGQYDVAVKMIKEGSMSEDEFFQEAQTMMKLSHPKLVKFYGVCSKEYPIYIVTEYISNGCLLNYLRSHGKGLEPSQLLEMCYDVCEGMAFLESHQFIHRDLAARNCLVDRDLCVKVSDFGMTRYVLDDQYVSSVGTKFPVKWSAPEVFHYFKYSSKSDVWAFGILMWEVFSLGKQPYDLYDNSQVVLKVSQGHRLYRPHLASDTIYQIMYSCWHELPEKRPTFQQLLSSIEPLREKDKH
B2: GFP-NLS-BMX (nuclear-targeted BMX) (enzyme, UniProt P51813 1-675)
chain: PKKKRKVMDTKSILEELLLKRSQQKKKMSPNNYKERLFVLTKTNLSYYEYDKMKRGSRKGSIEIKKIRCVEKVNLEEQTPVERQYPFQIVYKDGLLYVYASNEESRSQWLKALQKEIRGNPHLLVKYHSGFFVDGKFLCCQQSCKAAPGCTLWEAYANLHTAVNEEKHRVPTFPDRVLKIPRAVPVLKMDAPSSSTTLAQYDNESKKNYGSQPPSSSTSLAQYDSNSKKIYGSQPNFNMQYIPREDFPDWWQVRKLKSSSSSEDVASSNQKERNVNHTTSKISWEFPESSSSEEEENLDDYDWFAGNISRSQSEQLLRQKGKEGAFMVRNSSQVGMYTVSLFSKAVNDKKGTVKHYHVHTNAENKLYLAENYCFDSIPKLIHYHQHNSAGMITRLRHPVSTKANKVPDSVSLGNGIWELKREEITLLKELGSGQFGVVQLGKWKGQYDVAVKMIKEGSMSEDEFFQEAQTMMKLSHPKLVKFYGVCSKEYPIYIVTEYISNGCLLNYLRSHGKGLEPSQLLEMCYDVCEGMAFLESHQFIHRDLAARNCLVDRDLCVKVSDFGMTRYVLDDQYVSSVGTKFPVKWSAPEVFHYFKYSSKSDVWAFGILMWEVFSLGKQPYDLYDNSQVVLKVSQGHRLYRPHLASDTIYQIMYSCWHELPEKRPTFQQLLSSIEPLREKDKH
B3: kinase-dead mutant BMX-K445R (enzyme, UniProt P51813 1-675)
chain: B1 chain with K445R
B4: GFP-NES-BMX (cytoplasm-localized BMX) (enzyme, UniProt P51813 1-675)
chain: LSPSLSPLSLMDTKSILEELLLKRSQQKKKMSPNNYKERLFVLTKTNLSYYEYDKMKRGSRKGSIEIKKIRCVEKVNLEEQTPVERQYPFQIVYKDGLLYVYASNEESRSQWLKALQKEIRGNPHLLVKYHSGFFVDGKFLCCQQSCKAAPGCTLWEAYANLHTAVNEEKHRVPTFPDRVLKIPRAVPVLKMDAPSSSTTLAQYDNESKKNYGSQPPSSSTSLAQYDSNSKKIYGSQPNFNMQYIPREDFPDWWQVRKLKSSSSSEDVASSNQKERNVNHTTSKISWEFPESSSSEEEENLDDYDWFAGNISRSQSEQLLRQKGKEGAFMVRNSSQVGMYTVSLFSKAVNDKKGTVKHYHVHTNAENKLYLAENYCFDSIPKLIHYHQHNSAGMITRLRHPVSTKANKVPDSVSLGNGIWELKREEITLLKELGSGQFGVVQLGKWKGQYDVAVKMIKEGSMSEDEFFQEAQTMMKLSHPKLVKFYGVCSKEYPIYIVTEYISNGCLLNYLRSHGKGLEPSQLLEMCYDVCEGMAFLESHQFIHRDLAARNCLVDRDLCVKVSDFGMTRYVLDDQYVSSVGTKFPVKWSAPEVFHYFKYSSKSDVWAFGILMWEVFSLGKQPYDLYDNSQVVLKVSQGHRLYRPHLASDTIYQIMYSCWHELPEKRPTFQQLLSSIEPLREKDKH

Key:
[1] = target: Sp1 transcription factor (human (endogenous in HUVECs)) (UniProt P08047); test: co-IP; HUVECs infected with BMX-WT or BMX-K445R lentivirus; nuclear fractions; immunoprecipitation with anti-Sp1 (IgG as control), immunoblot with anti-BMX, anti-BMXpY566, anti-Sp1 and anti-pY
[2] = target: Sp1 transcription factor (human (endogenous in HUVECs)) (UniProt P08047); test: co-IP; HUVECs infected with lentivirus expressing vector control, GFP-NLS-BMX or GFP-NES-BMX; lysates in RIPA buffer, Protein A/G magnetic beads, 4°C overnight; precipitating antibody (anti-GFP or anti-Sp1) not told for this panel

Row | Binder | binding [1] | binding [2]
1 | B1 | binds | –
2 | B2 | – | binds
3 | B3 | no binding | –
4 | B4 | – | no binding
